From PubChem BioAssay AID493014 (National Center for Advancing Translational Sciences (NCATS), 2011) come the findings set out here.

As a reminder, the AC50 is the concentration giving half of the maximal activity seen.

The list shows a part of the results. Further columns of the screen follow, without active or inactive calls. Compounds called inactive in the main read-out are mostly missing here. Potencies come from curve fits of mixed quality, noted in brackets.

This assay is described as follows: qHTS Assay to Find Inhibitors of Chronic Active B-Cell Receptor Signaling. Conditions: ABC-DLBCL IkBa-CBG/CBR reporter, luminescence ratio (green luciferase fused to IkBa over red control in TMD8 lymphoma cells), 4 h. A digest of the protocol: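 Compounds up to 46 uM were incubated four hours with TMD8 cells whose green CBG68 luciferase is fused to IkappaBalpha; red CBR luminescence normalised the signal, and concentration-effect curves were fitted to fusion, red and ratio data.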

[1] abbreviates: measured here: CBR red luminescence, cell number.
The mark [2] stands for this setting: measured here: IkBa-CBG green luminescence.

With `Cc1ccc(NC(=O)c2ccc(NCc3ccco3)c([N+](=O)[O-])c2)cc1Cl`, the AC50 under setting [1] is 0.651 µM [falling, full curve, poor fit].

For `O=C(COC(=O)c1cc([N+](=O)[O-])ccc1N1CCOCC1)NC1CCCCC1`, under setting [1], the AC50 was 5.8 µM [rising, partial curve]. Consider `Nc1ncnc2c1ncn2[C@@H]1O[C@H](CO)[C@@H](O)[C@H]1O`, for which the AC50 under setting [1] is 18.4 µM [rising, partial curve]. Same read-out and setting: in the case of `Cc1ccc(NC(=O)c2ccc(Cl)cc2Cl)cc1O` it was 3.55 µM [rising, partial curve, poor fit]. In the case of `O=c1[nH]c(-c2ccccc2)c(-c2ccccc2)o1`, the AC50 under setting [1] is 2 µM [rising, partial curve]. With `Cc1cc(Cl)ccc1NC(=S)NCc1ccc(F)cc1`, the AC50 under setting [1] was 20 µM [rising, single point]. Same read-out and setting: under `CCc1ccc(C(=O)COc2ccc(NC(C)=O)cc2)cc1` stands 4.11 µM [rising, single point].

With `CCOc1ccc(C(CC(=O)O)NC(=O)C(c2ccccc2)c2ccccc2)cc1OC` (configuration not stated), the half-maximal activity concentration (AC50) under setting [2] is 29.1 µM [rising, partial curve, poor fit]. `CC(C)Oc1ccc(CNC(=O)c2ccc3c(c2)N(C)CCS3)cc1`: under setting [1], the AC50 is 11.2 µM [falling, partial curve]. Take `S=C(NCc1ccccc1)Nc1ccc(Oc2ccccc2)cc1`: the half-maximal activity concentration (AC50) under setting [1] was 35.5 µM [falling, single point]. On to `Cc1ccc(NC(=O)c2noc3c2CCCCC3)cc1`, for which the AC50 under setting [1] was 10 µM [falling, partial curve]. The same measure, in the same setting: under `Cc1ccc(-c2noc(-c3ccccc3C(=O)N3CCOCC3)n2)cc1` stands 23.1 µM [rising, single point].

On to `O=C(N/N=C/C(Br)=C/c1ccccc1)C1CC1`, for which, under setting [1], the AC50 is 1 µM [rising, full curve, poor fit]. `CN(C)/N=C/c1cn(-c2ccccc2)nc1-c1cccnc1`: under setting [1], the AC50 is 11.2 µM [falling, partial curve, poor fit]. The same measure, in the same setting: under `CSc1nc2c(sc3ccccc32)c(=O)n1Cc1ccc(C)cc1` stands 1.12 µM [falling, full curve]. The same measure, in the same setting: in the case of `COc1ccc(-c2n[nH]c(=S)n2-c2ccc(C)cc2)cc1OC` it was 35.5 µM [rising, single point]; in that of `C/C(=N\NC(=O)c1ccccc1)c1cccc(Br)c1`, 15.8 µM [falling, partial curve]. For `CCc1ccc(/C=C2/C(=O)N(CC)C(=S)N2C)s1`, the concentration at half-maximal activity (AC50) under setting [1] was 5.17 µM [rising, single point]. On to `COC(=O)c1ccccc1NC(=O)c1sc(Cl)nc1C`, for which the AC50 under setting [1] is 35.5 µM [falling, single point].

On to `CCOC(=O)C1(Cc2cccc(OC)c2)CCN(C2CCOCC2)CC1`, for which the AC50 under setting [1] was 35.5 µM [falling, single point]. Consider `CC/C(=N\NC(=S)Nc1cccc(C)c1)c1ccccc1`, for which the half-maximal activity concentration (AC50) under setting [1] was 7.94 µM [falling, partial curve, poor fit] and the AC50 under setting [2] is 5.01 µM [falling, single point]. Turning to `O=[N+]([O-])c1ccc(CS(=O)(=O)N2CCN(c3ccccc3)CC2)cc1`, the AC50 under setting [1] was 0.178 µM [rising, full curve, poor fit]. Same read-out and setting: under `COC(=O)c1ccc(N=C2SCC(=O)N2C)cc1` stands 35.5 µM [rising, single point]; under `CC(=O)N1N=C(c2c(-c3ccccc3)c3cc(C)ccc3[nH]c2=O)CC1c1ccco1` (configuration not stated), 20.6 µM [falling, single point]; under `C/C(N)=C(/C#N)C(=O)CSc1cc(Cl)ccc1Cl`, 6.51 µM [rising, partial curve, poor fit]. Consider `C[C@@]12C(=O)N(c3cccc(Cl)c3)C(=O)N1[C@H](c1ccc(Cl)cc1)[C@@H]1C(=O)N(C3CCCCC3)C(=O)[C@@H]12`, for which, under setting [1], the half-maximal activity concentration (AC50) is 11.6 µM [falling, partial curve, poor fit]. On the same count and under the same terms, in the case of `Cc1nc2ccccc2c2oc(C(=O)N3CCN(c4ccc([N+](=O)[O-])cc4)CC3)cc12` it was 3.55 µM [falling, partial curve, poor fit]. Still for that read-out and setting: in the case of `CCN(Cc1ccccc1)Cc1nc(CCc2ccccc2)no1` it was 0.891 µM [rising, full curve, poor fit]; in that of `Cc1ccc(NC(=O)CNc2cccc(S(=O)(=O)N3CCOCC3)c2)cc1F`, 9.2 µM [falling, partial curve, poor fit]. Still for that read-out and setting: in the case of `O=C1CCCN1c1ccc(C(=O)N(Cc2nnc(-c3ccccc3Cl)o2)C2CC2)cc1` it was 10.3 µM [falling, partial curve, poor fit]; in that of `O=C(NC(Cc1ccccc1)C(=O)O)/C(=C\c1ccc(Br)cc1)NC(=O)c1ccc(Br)o1` (configuration not stated), 6.31 µM [falling, single point]; in that of `O=C(CSc1nc(=O)n(Cc2ccncc2)c2c1CCC2)Nc1ccc(F)cc1F`, 7.94 µM [rising, partial curve, poor fit]. As for `CCN(CC)c1nc(C#N)cc(-c2ccc(OC)cc2)n1`, under setting [1], the AC50 was 2.82 µM [rising, full curve]. On to `CN(C)c1ccc(N2CC(C)(C)C2=O)cc1`, for which the half-maximal activity concentration (AC50) under setting [1] was 10 µM [rising, single point].

Turning to `COc1ccc(-c2c(C#Cc3ccsc3)c3cc(-c4ccc(OC)nc4)ccc3n2C)cc1`, the AC50 under setting [1] is 29.1 µM [falling, single point]. Same read-out and setting: in the case of `O=C(NC(=S)NCCC1=CCCCC1)c1ccc(Br)o1` it was 35.5 µM [rising, single point]; in that of `Cc1cccc(CNc2ncnc3ccc(-c4ccc5c(ccn5C)c4)cc23)c1`, 29.1 µM [falling, single point]. Same read-out and setting: in the case of `CSCCC(NC(=O)c1ccc(Cl)c([N+](=O)[O-])c1)C(=O)N1CCN(C/C=C/c2ccccc2)CC1` (configuration not stated) it was 23.1 µM [falling, single point]; in that of `N#Cc1c(N)nc(SCC(=O)OCc2ccccc2)c(C#N)c1-c1ccco1`, 5.62 µM [falling, partial curve, poor fit]; in that of `O=C(CCN1C(=O)c2ccccc2C1=O)OCN1C(=O)c2ccccc2C1=O`, 2.91 µM [rising, partial curve].

Turning to `O=C1c2ccccc2C(Nc2ccc(F)c(Cl)c2)N1Cc1ccco1` (configuration not stated), under setting [1], the half-maximal activity concentration (AC50) was 14.6 µM [falling, partial curve].
